Assay results published in the supplement of paper PMC11732987, “Enantioselective OTUD7B fragment discovery through chemoproteomics screening and high-throughput optimisation” (Communications Chemistry, 2025).
The list shows a part of the results. The data scatter; read single values as rough.

Chains of the proteins cited; added tags and fusions are not shown. Lines headed by an entry give the natural chain unless they say otherwise; changes in a name come on top.
UniProt Q96P48: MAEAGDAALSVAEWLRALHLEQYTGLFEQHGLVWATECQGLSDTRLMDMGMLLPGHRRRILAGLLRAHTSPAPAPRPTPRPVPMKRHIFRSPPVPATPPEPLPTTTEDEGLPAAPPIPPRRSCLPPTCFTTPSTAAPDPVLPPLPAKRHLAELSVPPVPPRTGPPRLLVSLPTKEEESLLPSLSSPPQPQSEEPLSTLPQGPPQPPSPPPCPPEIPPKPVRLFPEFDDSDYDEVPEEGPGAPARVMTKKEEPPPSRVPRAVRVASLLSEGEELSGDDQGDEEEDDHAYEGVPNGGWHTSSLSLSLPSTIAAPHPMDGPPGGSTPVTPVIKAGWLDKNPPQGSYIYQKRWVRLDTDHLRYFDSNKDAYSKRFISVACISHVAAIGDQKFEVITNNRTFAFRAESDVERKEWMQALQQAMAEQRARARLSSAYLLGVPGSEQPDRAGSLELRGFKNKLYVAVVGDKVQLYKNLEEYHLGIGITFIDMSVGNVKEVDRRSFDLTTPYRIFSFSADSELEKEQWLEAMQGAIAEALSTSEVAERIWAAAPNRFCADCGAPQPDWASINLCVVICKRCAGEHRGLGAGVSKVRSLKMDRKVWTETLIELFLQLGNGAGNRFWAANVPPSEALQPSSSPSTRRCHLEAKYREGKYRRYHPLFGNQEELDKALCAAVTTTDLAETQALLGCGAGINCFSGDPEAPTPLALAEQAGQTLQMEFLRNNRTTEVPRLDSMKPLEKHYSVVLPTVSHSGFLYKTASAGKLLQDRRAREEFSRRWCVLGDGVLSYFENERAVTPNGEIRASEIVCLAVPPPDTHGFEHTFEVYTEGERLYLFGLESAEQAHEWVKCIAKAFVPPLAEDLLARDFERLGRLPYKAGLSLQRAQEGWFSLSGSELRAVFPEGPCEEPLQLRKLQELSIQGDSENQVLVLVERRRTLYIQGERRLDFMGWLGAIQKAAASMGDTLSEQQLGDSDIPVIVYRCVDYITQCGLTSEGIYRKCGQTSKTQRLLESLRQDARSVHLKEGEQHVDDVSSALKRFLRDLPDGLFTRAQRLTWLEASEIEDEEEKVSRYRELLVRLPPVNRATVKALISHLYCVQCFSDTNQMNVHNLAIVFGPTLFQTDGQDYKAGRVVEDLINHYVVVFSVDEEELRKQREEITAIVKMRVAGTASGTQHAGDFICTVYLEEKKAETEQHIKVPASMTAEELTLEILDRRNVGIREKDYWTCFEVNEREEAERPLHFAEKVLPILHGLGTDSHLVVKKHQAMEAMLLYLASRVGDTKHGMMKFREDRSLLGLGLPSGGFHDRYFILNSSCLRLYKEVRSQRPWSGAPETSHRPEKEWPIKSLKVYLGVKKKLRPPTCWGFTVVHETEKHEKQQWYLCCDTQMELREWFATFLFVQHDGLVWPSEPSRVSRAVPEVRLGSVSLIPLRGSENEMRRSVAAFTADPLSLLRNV
UniProt P25054: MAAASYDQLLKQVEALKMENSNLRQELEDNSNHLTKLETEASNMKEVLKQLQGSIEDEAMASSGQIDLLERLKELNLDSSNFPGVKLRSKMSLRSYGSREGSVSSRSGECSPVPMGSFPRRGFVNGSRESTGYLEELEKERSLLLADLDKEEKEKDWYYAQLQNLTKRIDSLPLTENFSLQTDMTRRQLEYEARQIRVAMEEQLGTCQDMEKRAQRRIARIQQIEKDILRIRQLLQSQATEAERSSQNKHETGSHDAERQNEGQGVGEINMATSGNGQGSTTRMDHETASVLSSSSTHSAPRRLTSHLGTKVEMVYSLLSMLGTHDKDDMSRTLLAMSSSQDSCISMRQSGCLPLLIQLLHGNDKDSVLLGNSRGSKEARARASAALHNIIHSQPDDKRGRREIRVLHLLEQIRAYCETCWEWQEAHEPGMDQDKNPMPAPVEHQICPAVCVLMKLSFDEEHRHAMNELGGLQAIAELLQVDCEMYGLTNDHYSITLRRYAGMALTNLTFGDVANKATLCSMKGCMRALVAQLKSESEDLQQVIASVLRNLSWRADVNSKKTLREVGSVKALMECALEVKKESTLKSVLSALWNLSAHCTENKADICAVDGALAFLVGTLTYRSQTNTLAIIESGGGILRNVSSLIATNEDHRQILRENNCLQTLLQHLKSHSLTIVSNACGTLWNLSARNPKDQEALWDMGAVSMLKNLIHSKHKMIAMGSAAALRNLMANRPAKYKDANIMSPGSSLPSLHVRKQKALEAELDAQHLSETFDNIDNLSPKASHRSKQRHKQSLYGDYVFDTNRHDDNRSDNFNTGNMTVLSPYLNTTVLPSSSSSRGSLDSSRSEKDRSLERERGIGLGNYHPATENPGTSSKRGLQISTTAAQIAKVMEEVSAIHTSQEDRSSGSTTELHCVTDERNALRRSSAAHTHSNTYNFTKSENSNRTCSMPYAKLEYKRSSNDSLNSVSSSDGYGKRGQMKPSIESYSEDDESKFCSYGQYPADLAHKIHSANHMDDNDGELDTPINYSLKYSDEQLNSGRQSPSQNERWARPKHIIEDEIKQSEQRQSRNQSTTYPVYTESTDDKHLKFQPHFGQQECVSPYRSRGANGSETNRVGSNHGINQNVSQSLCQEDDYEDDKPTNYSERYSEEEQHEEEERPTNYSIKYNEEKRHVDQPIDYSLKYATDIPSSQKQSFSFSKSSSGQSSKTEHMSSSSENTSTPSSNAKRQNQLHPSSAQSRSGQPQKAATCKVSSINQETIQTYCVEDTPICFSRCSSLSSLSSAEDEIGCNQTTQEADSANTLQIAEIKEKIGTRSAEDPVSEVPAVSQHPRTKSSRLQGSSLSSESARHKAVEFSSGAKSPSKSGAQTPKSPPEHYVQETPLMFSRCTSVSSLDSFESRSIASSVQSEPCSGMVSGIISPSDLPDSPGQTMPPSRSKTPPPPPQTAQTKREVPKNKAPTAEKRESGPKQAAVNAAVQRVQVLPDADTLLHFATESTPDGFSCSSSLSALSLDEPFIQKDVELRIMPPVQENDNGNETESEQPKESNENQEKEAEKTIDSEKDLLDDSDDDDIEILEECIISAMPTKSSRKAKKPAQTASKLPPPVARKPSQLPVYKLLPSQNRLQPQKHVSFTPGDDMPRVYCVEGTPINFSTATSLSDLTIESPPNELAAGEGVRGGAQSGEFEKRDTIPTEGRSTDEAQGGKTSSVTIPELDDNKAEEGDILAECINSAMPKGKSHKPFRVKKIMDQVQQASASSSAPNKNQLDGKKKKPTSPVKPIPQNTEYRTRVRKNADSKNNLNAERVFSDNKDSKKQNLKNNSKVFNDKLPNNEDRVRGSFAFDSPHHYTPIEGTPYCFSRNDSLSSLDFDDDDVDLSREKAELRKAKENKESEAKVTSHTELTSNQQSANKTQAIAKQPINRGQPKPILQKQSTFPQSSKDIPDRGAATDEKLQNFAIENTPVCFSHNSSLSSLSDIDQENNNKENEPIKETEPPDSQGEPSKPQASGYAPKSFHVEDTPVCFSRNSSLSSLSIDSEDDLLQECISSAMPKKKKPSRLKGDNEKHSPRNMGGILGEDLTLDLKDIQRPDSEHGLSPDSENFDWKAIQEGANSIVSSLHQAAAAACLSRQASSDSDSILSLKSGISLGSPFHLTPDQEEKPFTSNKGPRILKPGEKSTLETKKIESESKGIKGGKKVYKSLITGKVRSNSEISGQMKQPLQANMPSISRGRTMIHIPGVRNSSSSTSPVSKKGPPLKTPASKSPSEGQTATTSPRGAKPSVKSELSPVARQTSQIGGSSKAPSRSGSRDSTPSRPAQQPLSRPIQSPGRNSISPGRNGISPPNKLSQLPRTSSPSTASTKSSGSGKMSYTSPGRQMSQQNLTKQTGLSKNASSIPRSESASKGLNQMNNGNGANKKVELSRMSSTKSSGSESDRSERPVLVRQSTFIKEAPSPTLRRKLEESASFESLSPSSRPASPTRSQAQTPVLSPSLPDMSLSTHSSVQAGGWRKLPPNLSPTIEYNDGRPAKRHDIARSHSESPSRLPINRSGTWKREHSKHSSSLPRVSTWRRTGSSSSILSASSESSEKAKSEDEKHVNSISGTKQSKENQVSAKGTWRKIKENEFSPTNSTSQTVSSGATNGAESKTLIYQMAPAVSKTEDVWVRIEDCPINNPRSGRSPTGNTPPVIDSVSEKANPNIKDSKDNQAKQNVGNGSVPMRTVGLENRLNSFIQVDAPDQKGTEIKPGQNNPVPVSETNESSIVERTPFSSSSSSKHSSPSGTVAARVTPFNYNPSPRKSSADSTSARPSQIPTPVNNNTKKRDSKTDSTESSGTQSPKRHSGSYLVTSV
UniProt O95782: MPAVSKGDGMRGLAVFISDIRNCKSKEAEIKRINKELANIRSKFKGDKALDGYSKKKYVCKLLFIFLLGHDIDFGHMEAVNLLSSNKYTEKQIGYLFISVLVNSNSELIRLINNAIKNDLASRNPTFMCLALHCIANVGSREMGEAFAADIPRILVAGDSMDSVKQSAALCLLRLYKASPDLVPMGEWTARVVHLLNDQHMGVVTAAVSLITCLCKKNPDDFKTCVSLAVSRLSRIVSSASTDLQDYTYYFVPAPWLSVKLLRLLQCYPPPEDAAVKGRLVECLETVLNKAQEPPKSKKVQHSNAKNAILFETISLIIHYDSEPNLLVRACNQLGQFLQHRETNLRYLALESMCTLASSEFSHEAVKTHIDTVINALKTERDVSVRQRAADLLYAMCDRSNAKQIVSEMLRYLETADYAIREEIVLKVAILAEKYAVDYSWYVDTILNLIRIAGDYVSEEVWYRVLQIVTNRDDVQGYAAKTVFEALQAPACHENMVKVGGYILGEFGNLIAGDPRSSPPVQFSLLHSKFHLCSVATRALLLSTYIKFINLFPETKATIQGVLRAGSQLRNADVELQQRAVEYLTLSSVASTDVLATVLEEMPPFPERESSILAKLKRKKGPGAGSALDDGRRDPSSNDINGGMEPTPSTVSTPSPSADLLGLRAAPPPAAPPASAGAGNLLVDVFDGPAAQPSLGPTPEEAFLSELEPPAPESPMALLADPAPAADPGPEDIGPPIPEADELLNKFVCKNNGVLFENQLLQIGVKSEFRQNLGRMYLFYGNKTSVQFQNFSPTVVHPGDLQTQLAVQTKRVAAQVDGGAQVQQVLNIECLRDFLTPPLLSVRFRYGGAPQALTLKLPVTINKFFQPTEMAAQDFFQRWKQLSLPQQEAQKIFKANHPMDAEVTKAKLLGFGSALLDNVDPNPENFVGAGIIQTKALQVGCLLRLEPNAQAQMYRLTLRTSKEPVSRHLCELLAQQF
UniProt Q14155: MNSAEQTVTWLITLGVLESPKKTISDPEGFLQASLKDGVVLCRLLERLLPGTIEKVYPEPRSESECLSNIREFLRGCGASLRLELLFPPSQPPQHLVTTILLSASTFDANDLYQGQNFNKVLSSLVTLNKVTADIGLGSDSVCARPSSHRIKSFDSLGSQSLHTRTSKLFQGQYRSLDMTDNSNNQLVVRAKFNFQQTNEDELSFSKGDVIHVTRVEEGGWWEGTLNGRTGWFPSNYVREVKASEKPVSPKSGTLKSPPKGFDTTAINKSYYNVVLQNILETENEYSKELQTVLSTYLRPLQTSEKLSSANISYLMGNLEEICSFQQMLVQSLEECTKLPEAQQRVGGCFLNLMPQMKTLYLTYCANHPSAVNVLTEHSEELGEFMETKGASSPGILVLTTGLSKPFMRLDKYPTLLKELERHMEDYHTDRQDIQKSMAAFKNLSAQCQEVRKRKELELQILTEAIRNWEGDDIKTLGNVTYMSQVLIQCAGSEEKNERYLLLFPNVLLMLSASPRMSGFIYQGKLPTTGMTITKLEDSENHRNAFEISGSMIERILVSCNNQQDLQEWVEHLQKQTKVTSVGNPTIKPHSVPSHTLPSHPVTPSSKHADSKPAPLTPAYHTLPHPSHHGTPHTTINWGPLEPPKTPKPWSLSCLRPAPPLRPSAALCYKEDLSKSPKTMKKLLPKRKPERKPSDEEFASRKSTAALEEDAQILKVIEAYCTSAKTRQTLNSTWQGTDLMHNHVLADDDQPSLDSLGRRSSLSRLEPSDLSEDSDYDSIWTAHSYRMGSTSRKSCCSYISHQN
UniProt P49407: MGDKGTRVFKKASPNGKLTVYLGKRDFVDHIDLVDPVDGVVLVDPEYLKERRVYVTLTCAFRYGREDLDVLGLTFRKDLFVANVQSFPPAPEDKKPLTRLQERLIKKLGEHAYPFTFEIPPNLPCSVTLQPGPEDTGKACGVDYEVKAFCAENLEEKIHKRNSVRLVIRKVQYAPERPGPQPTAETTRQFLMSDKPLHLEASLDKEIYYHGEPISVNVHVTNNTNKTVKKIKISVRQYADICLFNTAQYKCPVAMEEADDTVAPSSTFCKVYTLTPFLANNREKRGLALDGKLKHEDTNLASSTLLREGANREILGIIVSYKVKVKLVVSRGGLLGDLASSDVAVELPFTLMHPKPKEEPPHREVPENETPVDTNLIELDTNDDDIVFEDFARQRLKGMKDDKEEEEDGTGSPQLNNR

Each target was assayed with ClCC(=O)N[C@H]1CCCc2ccccc12 (assay: log2 mean competition ratio of IA-DTB cysteine labelling (DMSO/compound) (log2 ratio); higher = stronger cysteine engagement by compound). Details: 50 µM; treatment time: 4 h; cell line lysate: HEK293T.
Method: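 IA-DTB competitive cysteine chemoproteomics in HEK293T RIPA lysate. Lysates were treated with compound 29 or 30 at 50 or 200 µM for 4 h, then IA-DTB (500 µM, 1 h), trypsin-digested, NeutrAvidin-enriched and analysed by diaPASEF. Competition ratio = intensity DMSO / intensity compound (n=4 treated, n=64 DMSO); binding: mean log2 CR ≥ 1 and p ≤ 0.05 plus QC filters. Target is the cysteine site.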

| Target | log2 mean competition ratio |
| --- | --- |
| ARFGEF1 C1729 (UniProt Q9Y6D6) | 0.164 |
| ARCN1 C286 (UniProt P48444) | -0.0716 |
| ARHGEF6 C553 (UniProt Q15052) | 0.185 |
| ARAP1 C900 (UniProt Q96P48) | -0.0312 |
| ANKRD28 C85 (UniProt O15084) | -0.604 |
| ARHGEF12 C1528 (UniProt Q9NZN5) | 0.16 |
| APC C995 (UniProt P25054) | -0.372 |
| AQR C997 (UniProt O60306) | -0.363 |
| AP2B1 C391 (UniProt P63010) | -0.303 |
| AP2A1 C171 (UniProt O95782) | 0.692 |
| ANKMY2 C205 (UniProt Q8IV38) | 0.111 |
| ASH1L C157 | -0.427 |
| ARFGEF2 C1450 (UniProt Q9Y6D5) | -0.0358 |
| ARHGEF7 C721 (UniProt Q14155) | 0.406 |
| ARRB1 C140 (UniProt P49407) | 0.058 |
| APAF1 C450 (UniProt O14727) | -0.0771 |
| ANKRD27 C882 (UniProt Q96NW4) | -0.325 |
| ARIH2 C340 (UniProt O95376) | -0.288 |
| ANXA2 C133 | -0.0366 |
| ASCC1 C189 (UniProt Q8N9N2) | -0.639 |

Same assay, conditions: 200 µM; treatment time: 4 h; cell line lysate: HEK293T

| Target | log2 mean competition ratio |
| --- | --- |
| ARFGEF1 C1729 (UniProt Q9Y6D6) | 0.0936 |
| ARCN1 C286 (UniProt P48444) | -0.105 |
| ARHGEF6 C553 (UniProt Q15052) | 0.33 |
| ARAP1 C900 (UniProt Q96P48) | 0.339 |
| ANKRD28 C85 (UniProt O15084) | -0.446 |
| ARHGEF12 C1528 (UniProt Q9NZN5) | 0.153 |
| APC C995 (UniProt P25054) | 0.383 |
| AQR C997 (UniProt O60306) | -0.237 |
| AP2B1 C391 (UniProt P63010) | -0.221 |
| AP2A1 C171 (UniProt O95782) | 0.349 |
| ANKMY2 C205 (UniProt Q8IV38) | 0.204 |
| ASH1L C157 | 0.179 |
| ARFGEF2 C1450 (UniProt Q9Y6D5) | -0.00364 |
| ARHGEF7 C721 (UniProt Q14155) | 0.0437 |
| ARRB1 C140 (UniProt P49407) | -0.126 |
| APAF1 C450 (UniProt O14727) | -0.233 |
| ANKRD27 C882 (UniProt Q96NW4) | -0.0902 |
| ARIH2 C340 (UniProt O95376) | 0.0644 |
| ANXA2 C133 | 0.318 |
| ASCC1 C189 (UniProt Q8N9N2) | -0.244 |
